In article PMC4192513, “A Novel Protein-Protein Interaction in the RES (REtention and Splicing) Complex” (The Journal of Biological Chemistry, 2014):
Changes are numbered by the printed parent chain. No constants are given. Whether binding was seen depends on the method and setting. For some of these results: In cells and extracts the contact can be indirect. Some binding calls cover weakened binding; strength is not graded here. For some of these results: Where a sequence is shown, tags or fusion partners need not be part of it.

Amino acid sequences for entries named in this document (tags omitted). A change or cut given only in a name is not applied to a line headed by its entry.
UniProt P46947: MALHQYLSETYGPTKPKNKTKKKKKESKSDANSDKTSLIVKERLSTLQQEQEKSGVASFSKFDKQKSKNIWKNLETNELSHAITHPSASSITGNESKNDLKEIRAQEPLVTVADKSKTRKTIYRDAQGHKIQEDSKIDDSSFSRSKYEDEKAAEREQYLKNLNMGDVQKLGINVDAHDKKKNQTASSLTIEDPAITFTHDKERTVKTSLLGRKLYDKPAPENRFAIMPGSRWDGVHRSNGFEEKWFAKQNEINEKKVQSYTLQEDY

Tests used:
[1] = target: T1, Snu17p (residues 25-113) (S. cerevisiae) (UniProt P40565); experiment: NMR titration; data not shown: chemical shift perturbations of the shorter Snu17p (residues 25-113) on binding of Bud13p; both purified
T1 sequence: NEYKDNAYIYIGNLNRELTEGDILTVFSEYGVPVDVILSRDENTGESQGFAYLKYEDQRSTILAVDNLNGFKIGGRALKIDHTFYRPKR

[2] = target: T1, Snu17p (residues 25-113) (S. cerevisiae); experiment: NMR solution structure; Snu17p residues 25-113 with Bud13p residues 222-256; subunit-selective isotope labelling; 129 intermolecular NOE restraints; 298 K, NMR buffer; both purified
[3] = target: T2, His6-Snu17p F95A,K96D,I97A (operon co-expression) (S. cerevisiae) (UniProt P40565); experiment: pull-down; one-step Ni-NTA purification of His6-Snu17p, Bud13p and Pml1p co-expressed from an operon in E. coli; fractions on Coomassie-stained denaturing gels
T2 sequence: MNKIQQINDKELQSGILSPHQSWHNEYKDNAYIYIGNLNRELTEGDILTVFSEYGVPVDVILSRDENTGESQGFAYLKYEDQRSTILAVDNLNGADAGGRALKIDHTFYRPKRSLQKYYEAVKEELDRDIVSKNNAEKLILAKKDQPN

[4] = target: T3, His6-Snu17p (wild type, operon co-expression) (S. cerevisiae) (UniProt P40565); experiment: as above
T3 sequence: T2 sequence with A95F, D96K, A97I

binding [1] | binding [3] | binding [4] | Substance | binding [2]
binds |  |  | Bud13p (residues 222-256) (from UniProt P46947 222-256) (peptide) | binds
 | binds | binds | Bud13p (wild type, operon co-expression) (from UniProt P46947 1-266) | 
